Experimental data: PMC7246325 (Drug Design, Development and Therapy, 2020)

Columns and labels:
clinical = conditions: human, in vivo, po, 30 mg
[1] = nifedipine 30 mg, apatinib 750 mg daily, vs single administration

- Increase of AUC0–36h on coadministration with apatinib [1]: 80%
- Increase of AUC0–48h on coadministration with apatinib [1]: 83%
- Increase of Cmax on coadministration with apatinib [1]: 64%
- AUC0–36h geometric mean ratio (+ apatinib / alone) (nifedipine, N=20): 1.80
- AUC0–48h geometric mean ratio (+ apatinib / alone) (nifedipine, N=20): 1.83
- Cmax geometric mean ratio (+ apatinib / alone) (nifedipine, N=20): 1.64
- Difference of Tmax before and after coadministration of apatinib (nifedipine, Wilcoxon signed-rank test): no significant difference
- Cmax (clinical): 23.2 ng/mL
- Tmax (clinical): 24 h
SMILES: COC(=O)C1=C(C)NC(C)=C(C(=O)OC)C1c1ccccc1[N+](=O)[O-] [Nifedipine, nifedipine]
